Single values of this set are uncertain.
B1: Rpb7; numbered along this chain (parent)
chain: MFFIKDLSLNITLHPSFFGPRMKQYLKTKLLEEVEGSCTGKFGYILCVLDYDNIDIQRGRILPTDGSAEFNVKYRAVVFKPFKGEVVDGTVVSCSQHGFEVQVGPMKVFVTKHLMPQDLTFNAGSNPPSYQSSEDVITIKSRIRVKIEGCISQVSSIHAIGSIKEDYLGAI

Experiments:
[1] = variants of: B1; assay: log2 fold change of mutant abundance, UV-irradiated vs unirradiated; higher = more UV resistant (enriched after UV); settings: with Saccharomyces cerevisiae rad7Δ rad26Δ; UV dose (J/m2): 10; genetic background: rad7Δ rad26Δ rpb7Δ + plasmid RPB7 library; outgrowth: 10 cell divisions
[2] = variants of: B1; assay: NOISeq theta enrichment statistic, UV-irradiated vs unirradiated (dimensionless); higher = more UV resistant (enriched after UV); settings: with Saccharomyces cerevisiae rad7Δ rad26Δ; UV dose (J/m2): 10; genetic background: rad7Δ rad26Δ rpb7Δ + plasmid RPB7 library; outgrowth: 10 cell divisions

Variant | log2 fold change of mutant abundance [1] | NOISeq theta enrichment statistic [2]
F79N | -0.32 | -0.174
F79I | 0.103 | 0.266
F79L | 0.0714 | 0.347
F79Y | 0.0138 | 0.0854
F79V | -0.0646 | -0.169
F79C | -0.145 | -0.336
F79S | 0.0553 | 0.11
F79D | 0.192 | 0.157
N71R | 0.00615 | 0.00643
N71L | -0.0977 | -0.0579
N71H | -0.0659 | -0.227
N71M | 0.378 | 0.335
N71Y | 0.0341 | 0.252
N71K | -0.24 | -0.626
N71Q | -0.387 | -0.233
N71T | 0.0333 | 0.111
N71P | 0.265 | 0.236
N71F | -0.249 | -0.21
N71S | 0.0378 | 0.227
N71G | -0.844 | -0.443
N71D | 0.0406 | 0.117
N71V | -0.9 | -0.515
N71I | 0.0219 | 0.0899
E85I | 0.311 | 0.233

Variant | log2 fold change of mutant abundance [1] | NOISeq theta enrichment statistic [2]
E85A | -0.0104 | -0.0244
E85D | -0.0579 | -0.307
E85S | 0.0206 | 0.0142
E85K | 0.0231 | 0.0737
E85L | -0.287 | -0.251
E85N | 0.0594 | 0.0647
E85R | -0.101 | -0.0989
E85Y | -0.361 | -0.334
E85T | 0.219 | 0.229
E85H | 0.0989 | 0.0974
E85Q | -0.0521 | -0.0735
E85G | -0.064 | -0.222
E85V | -0.0442 | -0.17
F82H | 0.579 | 0.406
F82T | -0.324 | -0.221
F82S | -0.138 | -0.474
F82G | -0.118 | -0.0931
F82A | 0.885 | 0.477
F82W | 0.159 | 0.126
F82Y | 0.0676 | 0.327
F82I | 0.0473 | 0.229
F82N | 0.000464 | 0.000361
F82C | 0.0707 | 0.18
F82V | 0.0401 | 0.114

Variant | log2 fold change of mutant abundance [1] | NOISeq theta enrichment statistic [2]
F82D | 0.34 | 0.193
F82R | -0.635 | -0.425
F82P | -1.13 | -0.738
F82M | -0.106 | -0.0837
F82L | 0.0559 | 0.558
V77S | -0.265 | -0.205
V77M | 0.655 | 0.404
V77F | 0.0711 | 0.0798
V77C | 0.266 | 0.15
V77D | 0.449 | 0.352
V77G | -0.0709 | -0.208
V77I | 0.122 | 0.346
V77A | -0.126 | -0.233
V77E | 0.0812 | 0.123
V77R | -0.0632 | -0.0477
V77L | 0.0115 | 0.0654
V77Y | -0.192 | -0.145
K80D | -0.266 | -0.242
K80T | -0.121 | -0.34
K80V | -0.0944 | -0.0689
K80A | 0.239 | 0.143
K80R | -0.101 | -0.597
K80N | -0.0508 | -0.286
K80I | -0.0703 | -0.334

Variant | log2 fold change of mutant abundance [1] | NOISeq theta enrichment statistic [2]
K80G | -0.425 | -0.231
K80L | 0.0456 | 0.0448
K80S | -0.325 | -0.301
K80M | -0.528 | -0.43
K80Q | -0.0372 | -0.0913
K80H | -0.178 | -0.172
K80E | -0.199 | -0.742
K80Y | -0.243 | -0.233
P81Y | -0.0987 | -0.0734
P81R | 0.00401 | 0.00576
P81S | -0.0649 | -0.201
P81Q | 0.0106 | 0.064
P81L | 0.0837 | 0.452
P81K | -0.0369 | -0.0332
P81E | -0.417 | -0.253
P81N | -0.185 | -0.132
P81I | 0.141 | 0.127
P81A | 0.0317 | 0.0428
P81H | 0.0467 | 0.0843
P81T | -0.0279 | -0.176
P81V | -0.105 | -0.0653
D88E | -0.0918 | -0.814
D88C | -0.399 | -0.325
D88I | 0.144 | 0.121

Variant | log2 fold change of mutant abundance [1] | NOISeq theta enrichment statistic [2]
D88H | 0.0899 | 0.13
D88G | -0.0672 | -0.259
D88F | -0.0753 | -0.0607
D88A | -0.144 | -0.359
V87K | -0.438 | -0.279
V87L | 0.0228 | 0.132
V87F | -0.0137 | -0.0149
V87D | -0.0311 | -0.0277
V87W | 0.0841 | 0.115
V87G | 0.0269 | 0.085
V87T | -0.159 | -0.135
V87S | 0.25 | 0.194
V87A | -0.0257 | -0.0749
V87R | 0.304 | 0.326
V87Q | 0.314 | 0.19
V87E | 0.0714 | 0.166
V87M | 0.0482 | 0.18
V87I | 0.189 | 0.183
V87C | 0.185 | 0.134
V72C | 0.243 | 0.202
V72S | -0.0435 | -0.0375
V72R | 0.197 | 0.134
V72D | -0.0877 | -0.0576
V72I | -0.115 | -0.0945

A different layout for some results above:
N71P
  log2 fold change of mutant abundance [1]: 0.265
  NOISeq theta enrichment statistic [2]: 0.236
N71F
  log2 fold change of mutant abundance [1]: -0.249
  NOISeq theta enrichment statistic [2]: -0.21
N71S
  log2 fold change of mutant abundance [1]: 0.0378
  NOISeq theta enrichment statistic [2]: 0.227
N71G
  log2 fold change of mutant abundance [1]: -0.844
  NOISeq theta enrichment statistic [2]: -0.443

Later entries.

Variant | log2 fold change of mutant abundance [1] | NOISeq theta enrichment statistic [2]
V72M | -0.0371 | -0.153
V72G | -0.244 | -0.697
V72F | 0.0978 | 0.0835
V72L | 0.0508 | 0.183
V72A | -0.0166 | -0.0526
V72W | -0.0505 | -0.071
V72T | 0.532 | 0.304
V72E | -0.0385 | -0.0689
R75S | -0.0886 | -0.531
R75N | -0.264 | -0.249
R75W | -0.289 | -0.216
R75I | 0.0868 | 0.392
R75K | -0.049 | -0.15
R75Q | -0.436 | -0.309
R75E | 0.105 | 0.133
R75C | -0.0697 | -0.0619
R75T | 0.0672 | 0.11
R75G | -0.0967 | -0.167
R75L | -0.079 | -0.066
R75V | 0.0546 | 0.0505
R75M | -0.0245 | -0.0249
V78F | -0.00206 | -0.00659
V78Y | 0.24 | 0.216
V78S | 0.177 | 0.153

Quoted at random: seven entries already listed
Variant | log2 fold change of mutant abundance [1] | NOISeq theta enrichment statistic [2]
N71H | -0.0659 | -0.227
F79Y | 0.0138 | 0.0854
N71L | -0.0977 | -0.0579
V77F | 0.0711 | 0.0798
V77I | 0.122 | 0.346
V78S | 0.177 | 0.153
V77A | -0.126 | -0.233

(listing goes on)

Variant | log2 fold change of mutant abundance [1] | NOISeq theta enrichment statistic [2]
V78D | -0.0711 | -0.106
V78A | -0.0968 | -0.199
V78L | -0.0617 | -0.0778
V78G | -0.0432 | -0.186
V78C | -0.0957 | -0.102
V78I | -0.013 | -0.0315
K83G | 0.206 | 0.203
K83M | 0.153 | 0.141
K83S | -0.148 | -0.124
K83T | 0.0748 | 0.18
K83Y | 0.418 | 0.367
K83L | 0.628 | 0.609
K83D | 0.234 | 0.203
K83Q | 0.0227 | 0.0461
K83H | 0.245 | 0.215
K83N | 0.146 | 0.785
K83V | 0.384 | 0.267
K83R | -0.155 | -0.581
K83P | -0.632 | -0.448
K83E | 0.628 | 1.36
K83I | 0.31 | 1.47
V86Y | 0.0758 | 0.0548
V86M | -0.115 | -0.102
V86Q | 0.11 | 0.0879

Variant | log2 fold change of mutant abundance [1] | NOISeq theta enrichment statistic [2]
V86F | 0.173 | 0.161
V86R | -0.0732 | -0.0691
V86S | 0.128 | 0.102
V86D | 0.24 | 0.253
V86E | -0.117 | -0.511
V86K | 0.0709 | 0.0566
V86T | 0.25 | 0.184
V86C | -0.229 | -0.165
V86I | -0.101 | -0.394
V86W | -0.228 | -0.136
V86A | 0.0598 | 0.125
V86G | 0.00216 | 0.00758
V86L | -0.0653 | -0.272
G84D | -0.22 | -0.132
G84L | 0.064 | 0.0398
G84A | -0.165 | -0.162
G84E | 0.0401 | 0.0821
G84C | 0.311 | 0.255
G84S | 0.175 | 0.157
G84W | -0.0633 | -0.177
G84V | 0.00913 | 0.0276
G84R | -0.0489 | -0.106
Y74H | -0.00398 | -0.00569
Y74E | -0.127 | -0.096

Variant | log2 fold change of mutant abundance [1] | NOISeq theta enrichment statistic [2]
Y74L | 0.149 | 0.167
Y74N | -0.175 | -0.176
Y74A | -0.0103 | -0.00718
Y74K | -0.172 | -0.118
Y74D | -0.139 | -0.314
Y74T | -0.00188 | -0.00152
Y74F | 0.141 | 0.83
Y74C | 0.495 | 1.13
Y74V | -0.0591 | -0.0614
Y74I | 0.203 | 0.284
Y74Q | 1.52 | 0.64
Y74S | -0.0187 | -0.0418
Y74G | 0.128 | 0.0965
K73A | -0.112 | -0.398
K73D | -0.195 | -0.949
K73T | 0.202 | 0.153
K73V | 0.0366 | 0.182
K73L | 0.256 | 0.148
K73G | -0.022 | -0.135
K73R | -0.293 | -0.169
K73N | 0.0298 | 0.0349
K73I | -0.264 | -0.161
K73H | 0.349 | 0.281
K73S | -0.332 | -0.307

Variant | log2 fold change of mutant abundance [1] | NOISeq theta enrichment statistic [2]
K73Q | 0.0951 | 0.132
K73Y | -0.302 | -0.249
A76H | 0.132 | 0.087
A76C | -0.312 | -0.227
A76T | 0.108 | 0.176
A76E | 0.0524 | 0.049
A76Y | 0.449 | 0.266
A76G | 0.14 | 0.187
A76D | 0.0251 | 0.0546
A76L | 0.163 | 0.2
A76R | -0.129 | -0.11
A76S | 0.0213 | 0.0562
A76F | -0.365 | -0.368
A76V | -0.0211 | -0.0768
A76P | -0.133 | -0.169

Reference: the supplement of paper PMC10382679
